PubChem BioAssay AID2685 (National Center for Advancing Translational Sciences (NCATS), 2010)
This is one part of the list. The main result of the screen is listed elsewhere. These columns were measured beside it and carry no call. The list favours compounds with an active or inconclusive main result. The note in brackets gives the kind of curve behind each potency; many fits are weak.

Experiment: qHTS Assay for Lipid Storage Modulators in Drosophila S3 Cells;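 for cell number change: cells counted by Cell Tracker Red CMTPX staining in the red channel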
Conditions: BODIPY lipid droplet fluorescence, 18-24 h; for cell number change: measured here: cell count max response, cells fed with added oleic acid
In short: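 Laser-scanning cytometry quantifies lipid droplet accumulation (500–530 nm total intensity; droplet/cell object ratio) in oleic acid-fed (400 uM added) Drosophila S3 cells treated with a concentration series. 20 uM Triacsin C defined 100% inhibition.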

[1] = measured here: cell number channel AC50, cells fed with added oleic acid
[2] = measured here: lipid fluorescence (Fed channel) AC50, cells fed with added oleic acid

| Compound | cell number change | AC50 [1] | AC50 [2] |
| --- | --- | --- | --- |
| Clc1ccc(CNc2nnnn2-c2ccccc2)c(Cl)c1 | -6.66% |  |  |
| Cc1ccc(Oc2ccccc2NC(=O)CN2C(=O)NC3(CCCC3)C2=O)cc1 | 17.9% | 0.517 µM [rising, partial curve, poor fit] | 29.1 µM [rising, single point] |
| Cc1cc(C)nc(NN2C(=O)/C(=C/c3ccc(O)cc3)SC2=S)n1 | 16.9% |  | 3.26 µM [rising, single point] |
| Cc1cccc2cc(COC(=O)c3ccccn3)c(=O)[nH]c12 | 35.7% | 0.184 µM [rising, full curve, poor fit] | 11.6 µM [rising, partial curve] |
| COc1ccc(-n2cnnc2SCC(=O)NC2CCCc3ccccc32)cc1 (centres undefined) | 0.549% |  |  |
| N/C(=N\OC(=O)c1ccc(F)cc1)c1nonc1N | -10% |  | 32.6 µM [rising, single point] |
| CC(C)c1ccccc1NC(=O)COc1ccc2c(=O)c(Oc3ccc4ccccc4c3)coc2c1 | -13.8% | 0.517 µM [falling, full curve, poor fit] |  |
| CCc1ccc(OCC(=O)N/N=C/c2cc([N+](=O)[O-])ccc2N2CCOCC2)cc1 | 8.04% |  | 0.146 µM [rising, full curve, poor fit] |
| CCN1CCN(C(CNS(=O)(=O)c2ccccc2)c2ccccc2)CC1 (centres undefined) |  |  | 6.51 µM [rising, single point] |
| CCn1c(C)c(C)c2cc(C(=O)NCCc3ccco3)ccc21 | 12.5% |  | 29.1 µM [rising, single point] |
| CC(C)(C)OC(=O)N[C@@H](Cc1ccccc1)C(=O)N1CCC(C(=O)N[C@@H](Cc2c[nH]c3ccccc23)C(=O)O)CC1 | -19.4% |  |  |
| Cc1ccc(N=C2CCCCCN2C)c(C#N)c1 | -34% | 13 µM [falling, partial curve, poor fit] | 11.6 µM [falling, partial curve, poor fit] |
| O=C(Nc1cccc2c1CCCC2)c1ccco1 | -9.56% | 7.31 µM [falling, single point] |  |
| CC(C)(CNC(=O)C1CCCC1)CNC(=O)C1CCCC1 | 11.2% |  | 0.00461 µM [falling, full curve, poor fit] |
| CC(Sc1nc2c(c(=O)[nH]1)CCCC2)C(=O)Nc1ccc(Br)cn1 (centres undefined) | 9.4% |  | 23.1 µM [falling, single point] |
| Cc1ccc(F)c(NC(=S)Nc2cccc3ccccc23)c1 | 27.2% |  | 35.5 µM [rising, single point] |
| Cc1cc(NC(=O)CSc2nc(-c3ccccc3)c(C#N)c(=O)[nH]2)no1 | -1.43% |  | 2.59 µM [falling, partial curve] |
| Cn1c(NC(=O)c2cccc(Cn3cc(Cl)cn3)c2)nc2ccccc21 | -13.9% |  | 0.731 µM [rising, full curve] |

2 entries picked at random from the list so far:

| Compound | cell number change | AC50 [1] | AC50 [2] |
| --- | --- | --- | --- |
| Cc1ccc(Oc2ccccc2NC(=O)CN2C(=O)NC3(CCCC3)C2=O)cc1 | 17.9% | 0.517 µM [rising, partial curve, poor fit] | 29.1 µM [rising, single point] |
| N/C(=N\OC(=O)c1ccc(F)cc1)c1nonc1N | -10% |  | 32.6 µM [rising, single point] |

Next part

| Compound | cell number change | AC50 [1] | AC50 [2] |
| --- | --- | --- | --- |
| Cc1cc(CC(=O)O)n(C)c1C(=O)c1ccc(Cl)cc1 | 15.1% |  | 1.16 µM [rising, partial curve] |
| Cc1cc(N)n2ncc(-c3cccc(Br)c3)c2n1 | -39.8% | 16.4 µM [falling, partial curve] | 29.1 µM [falling, single point] |
| COc1ccc(C(=O)C2CCCCC2=O)cc1 (centres undefined) | -8.93% |  | 0.103 µM [falling, full curve, poor fit] |
| Cc1cccc(NC(=O)CN2C(=O)c3ccccc3S2(=O)=O)n1 | 7.63% |  |  |
| Cc1ccc(OC(C)C(=O)N(C)Cc2ccccc2)c([N+](=O)[O-])n1 (centres undefined) | -8.65% |  | 29.1 µM [falling, single point] |
| COc1cccc(-n2c(O)c(C=NCc3ccccn3)c3ccccc3c2=O)c1 | 24% | 0.13 µM [rising, full curve, poor fit] | 0.092 µM [rising, full curve] |
| COc1ccc(C)cc1NC(=O)CN1C(=O)c2cccc3cccc1c23 |  | 1.3 µM [rising, full curve] | 29.1 µM [falling, single point] |
| CN1C(=O)CC(N2CCN(CCN=CC3=C(O)CC(C)(C)CC3=O)CC2)C1=O (centres undefined) | -34.8% | 2.59 µM [falling, full curve] | 16.4 µM [falling, partial curve] |
| O=C(CN1CCN(c2cccc(Cl)c2)CC1)Nc1ccc([N+](=O)[O-])cc1C(=O)Nc1ccccc1F | -10.8% | 0.82 µM [falling, partial curve, poor fit] | 1.16 µM [falling, single point] |
| COc1cc(OC)cc(C(=O)NN2CCCCC2)c1 | -81.6% | 32.6 µM [falling, single point] | 20.6 µM [falling, partial curve] |
| CCOc1ccc(S(=O)(=O)Nc2cc(OC)ccc2OC)cc1 | -13.9% |  | 6.51 µM [rising, single point] |
| COc1ccc(OCC(=O)Nc2c(C(=O)N3CCC(N4CCCCC4)CC3)oc3ccccc23)cc1 | 5.27% | 0.0731 µM [rising, full curve, poor fit] |  |
| Cc1ccc(N2C(=O)CC(SCC(=O)Nc3ccc(S(N)(=O)=O)cc3)C2=O)cc1 (centres undefined) | -3.25% | 0.103 µM [falling, full curve, poor fit] | 0.146 µM [falling, full curve, poor fit] |
| Cc1ccc2nc(SCC(=O)Nc3cccc(F)c3)nc(=O)n2c1 |  |  | 0.082 µM [falling, full curve, poor fit] |
| COc1ccccc1N(C)S(=O)(=O)c1ccc(C(=O)Nc2ccc(C)cc2C)cc1 |  | 0.184 µM [rising, partial curve, poor fit] | 0.58 µM [rising, full curve] |
| Cc1cc(CN(C)C)c(O)c(C2(C)CCCCC2)c1 | -41.4% | 0.82 µM [falling, full curve] | 29.1 µM [falling, single point] |
| Cn1cc2ccc([N+](=O)[O-])cc2n1 | 30.6% | 14.6 µM [rising, single point] |  |
